The target in the experiment is T1, KDM2A (mouse (endogenous in c-KIT+ spermatogonia of mouse testes)) (UniProt P59997).
T1 sequence: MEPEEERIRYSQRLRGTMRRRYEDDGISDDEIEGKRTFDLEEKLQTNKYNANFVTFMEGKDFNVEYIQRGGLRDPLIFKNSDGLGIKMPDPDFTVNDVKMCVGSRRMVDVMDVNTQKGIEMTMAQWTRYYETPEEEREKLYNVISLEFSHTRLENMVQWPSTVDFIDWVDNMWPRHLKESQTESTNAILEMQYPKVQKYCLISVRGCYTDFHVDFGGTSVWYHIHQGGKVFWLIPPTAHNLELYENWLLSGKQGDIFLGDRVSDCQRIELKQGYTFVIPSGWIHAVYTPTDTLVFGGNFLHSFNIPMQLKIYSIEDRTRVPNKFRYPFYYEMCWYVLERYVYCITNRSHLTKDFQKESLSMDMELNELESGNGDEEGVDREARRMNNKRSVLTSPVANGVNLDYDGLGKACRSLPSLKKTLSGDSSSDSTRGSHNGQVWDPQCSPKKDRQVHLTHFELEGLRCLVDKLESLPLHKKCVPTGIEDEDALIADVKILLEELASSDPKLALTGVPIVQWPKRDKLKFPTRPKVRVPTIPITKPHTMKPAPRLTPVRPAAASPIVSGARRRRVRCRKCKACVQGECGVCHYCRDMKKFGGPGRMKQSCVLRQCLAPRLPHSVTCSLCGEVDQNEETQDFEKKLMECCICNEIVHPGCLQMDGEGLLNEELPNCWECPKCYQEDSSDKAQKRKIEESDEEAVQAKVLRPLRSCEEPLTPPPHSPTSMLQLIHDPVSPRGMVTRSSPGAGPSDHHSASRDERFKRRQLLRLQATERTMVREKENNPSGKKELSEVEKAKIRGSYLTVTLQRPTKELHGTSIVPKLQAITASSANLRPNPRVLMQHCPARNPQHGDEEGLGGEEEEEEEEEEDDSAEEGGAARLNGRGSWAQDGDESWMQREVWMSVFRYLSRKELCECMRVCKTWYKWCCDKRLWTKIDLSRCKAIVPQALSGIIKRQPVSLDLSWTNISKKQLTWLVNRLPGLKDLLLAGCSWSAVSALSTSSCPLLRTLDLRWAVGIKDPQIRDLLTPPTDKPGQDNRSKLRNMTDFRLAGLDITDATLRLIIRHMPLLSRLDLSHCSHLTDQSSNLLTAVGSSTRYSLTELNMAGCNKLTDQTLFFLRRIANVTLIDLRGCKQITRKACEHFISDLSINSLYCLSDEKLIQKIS
Description: co-IP; lysate of purified c-KIT+ spermatogonia, relevant antibodies and protein A/G magnetic beads overnight at 4 °C, with or without Super Nuclease, six washes, western blot; IgG as negative control. Background: In western blotting, separated proteins are transferred to a membrane and probed.

Chains of the proteins cited; added tags and fusions are not shown.
UniProt Q61501: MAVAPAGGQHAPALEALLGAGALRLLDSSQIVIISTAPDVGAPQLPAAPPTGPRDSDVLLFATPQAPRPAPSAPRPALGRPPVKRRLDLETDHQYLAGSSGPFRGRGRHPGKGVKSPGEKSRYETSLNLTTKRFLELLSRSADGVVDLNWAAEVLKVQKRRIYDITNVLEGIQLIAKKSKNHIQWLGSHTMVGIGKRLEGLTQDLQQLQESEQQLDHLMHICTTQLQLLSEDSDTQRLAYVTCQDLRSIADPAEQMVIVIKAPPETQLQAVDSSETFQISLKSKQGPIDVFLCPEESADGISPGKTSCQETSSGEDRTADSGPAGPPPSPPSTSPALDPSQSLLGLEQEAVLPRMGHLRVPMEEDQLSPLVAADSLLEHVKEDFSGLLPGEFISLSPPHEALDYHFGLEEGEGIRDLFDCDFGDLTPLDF

The source of these data is article PMC11448500.

No constants are given. Whether binding was seen depends on the method and setting. In cells and extracts the contact can be indirect. Some results given as binding are weak or reduced against the parent protein; the word gives no strength.

With E2F1 (from UniProt Q61501 1-430), the binding result is given as “binds”.
